Data published in US10426772B2, “Use of ergot alkaloids as an anthelmintic agent” (priority 2016, dated 2019).

Amino acid sequences for entries named in this document (tags omitted).
UniProt A0A173FEI8, entry or part of it: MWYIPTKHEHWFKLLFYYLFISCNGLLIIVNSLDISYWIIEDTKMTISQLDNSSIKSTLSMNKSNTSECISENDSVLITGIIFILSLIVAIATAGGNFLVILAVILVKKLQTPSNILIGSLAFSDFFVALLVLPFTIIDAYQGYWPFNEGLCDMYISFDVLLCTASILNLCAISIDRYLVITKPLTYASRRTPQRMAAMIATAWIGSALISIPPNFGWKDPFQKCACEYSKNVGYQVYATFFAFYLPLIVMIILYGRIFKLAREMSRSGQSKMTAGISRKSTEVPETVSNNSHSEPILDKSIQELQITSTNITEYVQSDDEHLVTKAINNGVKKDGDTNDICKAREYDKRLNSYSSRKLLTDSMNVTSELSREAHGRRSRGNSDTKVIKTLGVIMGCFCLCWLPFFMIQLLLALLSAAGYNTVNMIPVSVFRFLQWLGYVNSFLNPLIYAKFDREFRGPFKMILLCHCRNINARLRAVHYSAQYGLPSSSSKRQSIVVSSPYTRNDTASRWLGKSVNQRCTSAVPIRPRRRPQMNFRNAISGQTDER
UniProt G4V5G4, entry or part of it: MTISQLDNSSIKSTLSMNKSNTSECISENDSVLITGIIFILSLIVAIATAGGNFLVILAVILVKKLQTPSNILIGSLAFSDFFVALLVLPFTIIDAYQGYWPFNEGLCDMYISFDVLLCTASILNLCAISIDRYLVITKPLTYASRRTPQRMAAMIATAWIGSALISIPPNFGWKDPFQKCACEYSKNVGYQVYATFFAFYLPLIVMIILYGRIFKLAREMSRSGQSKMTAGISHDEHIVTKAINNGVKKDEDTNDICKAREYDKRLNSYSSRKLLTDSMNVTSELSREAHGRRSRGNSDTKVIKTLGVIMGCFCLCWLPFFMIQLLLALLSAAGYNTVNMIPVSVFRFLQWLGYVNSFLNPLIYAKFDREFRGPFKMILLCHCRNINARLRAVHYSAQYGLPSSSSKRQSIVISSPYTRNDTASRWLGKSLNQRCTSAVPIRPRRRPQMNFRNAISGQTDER

Experiments:
Sm.5HTR [1] = biological target: Sm.5HTR (Schistosoma mansoni, UniProt A0A173FEI8); assay: cell-based; conditions: HEK293, read-out: Sm.5HTR Emax
Description: HEK293 cells (ATCC CRL-1573.3) were cultured in growth media consisting of DMEM supplemented with GlutaMAX (Gibco cat #10566016)+10% heat inactivated fetal bovine serum and penicillin-streptomycin (100 units/mL, ThermoFisher). Stable cell lines for the pGloSensor-22F cAMP Plasmid (Promega) and schistosome 5HTRs in pcDNA3.1(−) were selected with hygromycin (200 μg/mL) and G418 (400 μg/mL). The correct identity of each stably expressed sequence was verified by isolating total RNA from each stable line (TRIzol Reagent, Ambion) and amplifying the sequence of interest with gene specific primers flanking the 5′ and 3′ regions of the cds (SuperScript® III One-Step RT-PCR System, Invitrogen). PCR products were ligated into a TA cloning vector (pGEM-T Easy, Promega) and sequenced.
HEK293 lines stably expressing both the 22F cAMP sensor and Sm.5HTR were cultured in growth media supplemented with 10% dialyzed FRS. For cAMP assays in 96 well format, cells cultured in T-75 flasks were trypsinized (TrypLE Express, Gibco) and plated in solid white 96 well plates (Costar cat #3917) the day prior to assay at a density of 2.5×10^4 cells/well. […] Readings performed in 384 well format were modified so that cells were assayed in suspension. […]

Sm.5HTRL = Sm.5HTRL (Schistosoma mansoni, UniProt A0A173FEI8); assay: GloSensor cAMP assay, HEK293 cells transiently transfected with Sm.5HTRL; assay type: cell-based; conditions: antagonists 10 μM; 5-HT EC80 dose 0.8 μM (FIG. 8)
Description: (§1) HEK293 cells (ATCC CRL-1573.3) were cultured in DMEM supplemented with 10% fetal bovine serum (FBS), penicillin (100 units/mL), streptomycin (100 μg/mL), and L-glutamine (290 μg/mL). Cells were transiently transfected (ViaFect, Promega) as per the manufacturer's protocol at a density of 2×10^6 cells per T-25 cell-culture flask. Cells were transfected with plasmids encoding GloSensor (Promega) and either Sm.5HTR, (Smp_126730, GenBank accession number KF444051.1) or Sm.5HTRL (KX150867), both GPCRs being codon optimized for mammalian expression, or Hs.5HT7a (GenBank accession number NM_000872.4, R&D Systems) subcloned into pCS2(−). Cell culture reagents were from Invitrogen. Epitope tagged constructs were used to verify expression, and untagged constructs used for all luminescence assays.
(§2) For assays performed on adherent cells, HEK-293 cells were transferred one day post transfection to 96 well, solid white plates (Corning, cat #3917) coated with 0.01% poly-L-lysine (Sigma Aldrich) at a density of 5×10^4 cells/well in DMEM supplemented with 1% dialyzed FBS (Gibco). […] Plates were allowed to equilibrate at room temperature for two hours prior to performing luminescence assays (GloMax-Multi Detection System plate reader, Promega). […]

Sm.5HTR [2] = biological target: Sm.5HTR (Schistosoma mansoni, UniProt G4V5G4); assay type: cell-based
Description: as §1, §2
The protocol for screening is shown schematically in FIG. 5A. […] Luminescence was then read at a fixed time point (t=60 minutes, FIG. 5A). […]

| Structure (SMILES) | Emax (Sm.5HTR [1]) [%] | inhibition of 5-HT evoked cAMP generation through Sm.5HTRL (Sm.5HTRL) | selectivity Sm.5HTR versus Hs.5HT7R (IC50 (Hs.5HT7R)/IC50 (Sm.5HTR)), in words (Sm.5HTR [2]) |
| --- | --- | --- | --- |
| CCN(CC)C(=O)N[C@H]1C=C2c3cccc4[nH]cc(c34)C[C@H]2N(C)C1 [lisuride] | 59 ± 25 |  |  |
| Cc1ccccc1C(OCCN(C)C)c1ccccc1 (stereo not drawn) [orphenadrine] |  | inhibited 5-HT evoked cAMP generation through Sm.5HTRL | clear selectivity for Sm.5HTR |
